# Some of these results come from one statement about several compounds together.
# Tested on: Varroa mites
# Assay: Example 6 behavioral dose response bio-assays of Varroa mites
# Conditions: in vivo
# Source text: Foragers were collected at the entrance of one or more honey bee hives by aspiration into a jar, when bees were flying back to the colony.
# Initially, nurses were collected from an open brood frame of a honey bee hive. Bees apparently attending the brood were targeted for collection. As time passed and temperatures started to drop no open brood was observed, therefore subsequent collections targeted bees around sealed brood. At the end of the sampling period no sealed brood was present, so bees taken from the middle frame of a brood chamber were considered nurses.
# Both foragers and nurses were immediately transferred to individual plastic cages (118×98×81 mm: H×W×D), fed with syrup (2:1) and kept overnight in an incubator at 30° C. and 70% RH. Next day, cages were inspected for any dead bees to be removed before freeze killing the bees on dry ice.
# For Varroa mite collection, adult bees were taken from the brood chamber's central frames of a mite-infested hive using a glass jar. Bees were fed with syrup (2:1), and kept in an incubator at 30° C. and 70% RH until needed. […]
# The bio-assays with a forager and a nurse bee, Varroa mite, and synthesized compounds were set in glass petri dishes placed into an incubator at 30° C. and 70% relative humidity. […] Mite paralysis and death were recorded after 3 h and 5 h.
structure (smiles),measurement,value
"C=CCOc1ccc(OCCC)cc1 [3c{3,6}, 1-allyloxy-4-propoxybenzene]",concentrations producing a clear paralyzed/killed effect on the mites,≥ 100 µg
